# Assay results published in the supplement of paper PMC4635364.
# Where a name gives a salt, the structure may show the parent alone. This is one part of the list. Single values are uncertain here, since repeats match poorly.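 ReNCell VM, a human fetal ventral-midbrain neural progenitor line, was differentiated without mitogens. Blinded raters scored images stained for doublecortin (early neurons) or tyrosine hydroxylase (dopaminergic neurons) against untreated wells (0 = no change). Scores were averaged across repeats and both raters, and compounds averaging 2 or more were selected as hits for retesting.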
# Legend:
# [1] = tested on: ReNCell VM; assay: neuronal differentiation score (DCX+ cell fraction vs untreated, manual image score) (score (-3 to 3)); higher = more neuronal differentiation; conditions: 2 uM, 2 weeks
# [2] = tested on: ReNCell VM; assay: dopaminergic neuron differentiation score (TH+ cell fraction vs untreated, manual image score) (score (0 to 3)); higher = more TH+ dopaminergic neuron differentiation; conditions: 2 uM, 4 weeks, BDNF 10 ng/ml + GDNF 10 ng/ml
smiles,measurement,setting,value
CNCCC=C1c2ccccc2CCc2ccccc21,neuronal differentiation score,[1]; library: Spectrum,inactive: 0
same,dopaminergic neuron differentiation score,[2]; library: Spectrum,inactive: 0
CC(C)NC[C@@H](O)COc1ccc(CC(N)=O)cc1 [R(+)-Atenolol],neuronal differentiation score,[1]; library: LOPAC,active: 2
same,dopaminergic neuron differentiation score,[2]; library: LOPAC,inactive: 1
CN(C)CCOC(c1ccccc1)c1ccccc1.Cn1c(=O)c2[nH]c(Cl)nc2n(C)c1=O [Dimenhydrinate],neuronal differentiation score,[1]; library: Prestwick,inactive: 0
same,dopaminergic neuron differentiation score,[2]; library: Prestwick,inactive: 0
OC[C@H]1O[C@@H](n2cnc3c(N[C@H]4CC5CCC4C5)ncnc32)[C@H](O)[C@@H]1O (some centres undefined),neuronal differentiation score,[1]; library: LOPAC,inactive: 1
same,dopaminergic neuron differentiation score,[2]; library: LOPAC,inactive: 0
O=C(O)c1cn(C2CC2)c2cc(N3CCNCC3)c(F)cc2c1=O,neuronal differentiation score,[1]; library: Spectrum,inactive: 0
same,dopaminergic neuron differentiation score,[2]; library: Spectrum,inactive: 0
O=C(O)CN(CCN(CC(=O)O)CC(=O)O)CC(=O)O.[Na+].[Na+].[Na+],neuronal differentiation score,[1]; library: Spectrum,inactive: 0
same,dopaminergic neuron differentiation score,[2]; library: Spectrum,inactive: 0
C[C@@H]1C[C@H]2[C@@H]3C[C@H](F)C4=CC(=O)C=C[C@]4(C)[C@@]3(Cl)[C@@H](O)C[C@]2(C)[C@H]1C(=O)COC(=O)C(C)(C)C [Clocortolone pivalate],neuronal differentiation score,[1]; library: Prestwick,inactive: 0
same,dopaminergic neuron differentiation score,[2]; library: Prestwick,inactive: 0
CN1CCc2c(cc(O)c(O)c2Cl)C(c2cccc(Cl)c2)C1 (centres undefined),neuronal differentiation score,[1]; library: LOPAC,inactive: -1
same,dopaminergic neuron differentiation score,[2]; library: LOPAC,inactive: 0
CC1=C(C)C(=O)C(CCCCC#CCCCC#CCO)=C(C)C1=O,neuronal differentiation score,[1]; library: LOPAC,inactive: 0
same,dopaminergic neuron differentiation score,[2]; library: LOPAC,inactive: 0
CCCCCCCCCCCCCCSCC(=O)O [Tetradecylthioacetic acid],neuronal differentiation score,[1]; library: LOPAC,inactive: 0
same,dopaminergic neuron differentiation score,[2]; library: LOPAC,inactive: 0
CCn1cc(C(=O)O)c(=O)c2ccc(C)nc21 [Nalidixic acid sodium salt],neuronal differentiation score,[1]; library: Prestwick,inactive: 0
same,dopaminergic neuron differentiation score,[2]; library: Prestwick,inactive: 0
CCCCOc1ccc(C(=O)CCN2CCCCC2)cc1,neuronal differentiation score,[1]; library: Spectrum,inactive: 0
same,dopaminergic neuron differentiation score,[2]; library: Spectrum,inactive: 0
